# Assay results as given in PubChem BioAssay AID758 (NMMLSC, 2007).
# About 110 (0.058%) of roughly 190,000 compounds were called active. Inconclusive means that the source gave no clear call. Such entries were picked first, then a sample of the others.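 Rule for the calls: active = fluorescent GTP binding to Rab7 beads changed by at least 20 points from the 100% baseline, either direction, mostly lower; inconclusive = compound itself probably fluorescent, or too few beads counted; inactive = the rest.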
# Tested on: Rab7 GTPase wild type (dog), Bodipy-FL-GTP binding
# Experiment: modulators of GTP binding to Rab7, primary screen, biochemical, wildtype, multiplex bead flow cytometry (AID 758);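 note: median green fluorescence of bound Bodipy-FL-GTP per Rab7 bead population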
# Conditions: GST-Rab7 beads, fluorescent GTP binding, at 10 µM, actives lie on both sides, untreated = 100%, excess cold GTP = 0%
row,Structure (SMILES),GTP binding activity (percent of control)
1,Cc1cc(C)nc(/N=C(\N)Nc2ccc(S(=O)(=O)Nc3nccc(C)n3)cc2)n1,inactive: 96%
2,COc1ccc(CNC(=O)C2CC(=O)N(c3ccc(OCC(=O)N4C(C)CCCC4C)cc3)C2)cc1 (configuration not stated),inconclusive: 205%
3,NS(=O)(=O)c1ccc(Nc2nc(-c3ccc(O)cc3O)cs2)cc1,inactive: 87%
4,Cc1cccc(NC(=O)CN2C(=O)N/C(=C/c3cc(C)n(C)c3C)C2=O)c1,inconclusive: 94%
5,c1ccc(-n2cc(CNCCc3cscn3)c(-c3ccc4c(c3)OCO4)n2)cc1,inactive: 100%
6,Nc1nonc1C(=O)NCCN=Cc1ccccc1O,inactive: 99%
7,O=C(Cn1c2ccc(F)cc2c2nc3n(c(=O)c21)CCS3)Nc1ccc(Cl)cc1F,inconclusive: 95%
8,O=C(O)c1ccccc1C(=O)Nc1ccc(Br)c2cccnc12,inconclusive: 93%
9,O=C(COC(=O)C1CCN(S(=O)(=O)c2ccccc2C(F)(F)F)CC1)NCc1ccc(F)cc1,inactive: 102%
10,CCN(CC)P(=O)(Nc1ccccc1Br)c1ccc(N(C)C)cc1NC(=O)c1ccco1 (configuration not stated),inconclusive: 94%
11,O=C(c1cccc(S(=O)(=O)N2CCc3ccccc32)c1)N1CCN(c2ccccn2)CC1,inactive: 104%
12,Cc1ccc(C(=O)NCCSC2CCCCC2)cc1S(=O)(=O)Nc1ccccc1,inconclusive: 105%
13,Cc1cc(/C=C2\SC(=S)N(Cc3ccco3)C2=O)c(C)n1-c1cccnc1,inconclusive: 171%
14,Cc1onc(C(N)=O)c1C(=O)Nc1ncc(C(F)(F)F)cc1Cl,inactive: 100%
15,COc1ccccc1NC(=O)c1ccc(NC(=O)CSc2n[nH]c(N)n2)cc1,inactive: 97%
16,CCOC(=O)c1sc(Nc2nc3cc4c(cc3s2)OCO4)cc1C,inconclusive: 273%
17,Cc1nn(C)c(C)c1N=Cc1c(O)ccc2ccccc12,inconclusive: 101%
18,O=C(CSc1nc2ccccc2c(=O)n1CCCO)NCc1ccccc1,inconclusive: 107%
19,CC1(c2ccccc2Cl)NC(=O)N(CC(=O)NCc2ccco2)C1=O (configuration not stated),inactive: 97%

row,Structure (SMILES),GTP binding activity (percent of control)
1,COc1cccc(NC(=O)Nc2nccc(C)n2)c1,inactive: 108%
2,CCC1=NN2C(=N)/C(=C\c3cccn3-c3c(C)cccc3C)C(=O)N=C2S1,inconclusive: 94%
3,O=C(CSCc1nc2c(nnn2Cc2ccc(F)cc2)c(=O)[nH]1)Nc1cccc(C(F)(F)F)c1,inconclusive: 94%
4,Cc1cc(C)n(-c2ccc(C(=O)Nc3cccc(S(=O)(=O)N(C)C)c3)cc2)n1,inconclusive: 92%
5,O=C(Nc1ccccc1[N+](=O)[O-])c1nc[nH]c1C(=O)NCCO,inconclusive: 92%
6,O=C(Nc1ccccc1C(=O)O)c1ccc(Br)c(S(=O)(=O)NCc2ccccc2)c1,inconclusive: 93%
7,COc1ccc(N(C(=O)c2cnccn2)C(C(=O)NC2CCCCC2)c2ccc(O)cc2)cc1 (configuration not stated),inactive: 101%
8,CCOc1cc(S(=O)(=O)NCc2ccccn2)ccc1Cl,inconclusive: 99%
9,O=C(CNS(=O)(=O)c1ccc(Cl)cc1)OCC(=O)N1CCCc2ccccc21,inactive: 99%
10,N#C/C(=C/c1ccccc1[N+](=O)[O-])c1nc(C2CC2)cs1,inconclusive: 102%
11,CSCCC(NC(=O)c1ccco1)C(=O)NCc1ccc(F)cc1 (configuration not stated),inconclusive: 102%
12,CC(=O)Nc1ccc(S(=O)(=O)NCCc2ccccn2)cc1,inconclusive: 97%
13,Nc1c(C(=O)NCc2ccco2)sc2nc3c(cc12)C(=O)CCC3,inconclusive: 94%
14,CN1CCN(C2=C(Cl)C(=O)N(Cc3ccccc3)C2=O)CC1,inconclusive: 105%
15,Cc1cccc(-n2c(SCC(N)=O)nnc2-c2ccccn2)c1C,inconclusive: 103%
16,Cc1c(C(=O)N/N=C/c2ccc(O)c(Br)c2)sc(N)c1C#N,inactive: 93%
17,O=C(NNC(=O)C1CCN(c2ncccn2)CC1)c1ccncc1,inconclusive: 98%
18,CS(=O)(=O)N1CCC(C(=O)N2CCN(c3ccccc3F)CC2)CC1,inactive: 96%
19,Fc1ccc(Oc2nc(-c3ccccc3)nnc2C(F)(F)F)cc1,inconclusive: 100%

# Molecules from the list above that contain an aryl thioether with sulfur outside any ring (three):
row,Structure (SMILES),GTP binding activity (percent of control)
15,COc1ccccc1NC(=O)c1ccc(NC(=O)CSc2n[nH]c(N)n2)cc1,inactive: 97%
18,O=C(CSc1nc2ccccc2c(=O)n1CCCO)NCc1ccccc1,inconclusive: 107%
15,Cc1cccc(-n2c(SCC(N)=O)nnc2-c2ccccn2)c1C,inconclusive: 103%

# The list continues.

row,Structure (SMILES),GTP binding activity (percent of control)
1,C=CCNC(=O)/C(=C\C=C\c1ccccc1)NC(=O)c1ccc(OCCCC)cc1,inconclusive: 95%
2,O=C(NCc1ccncc1)C(=O)NCC(c1ccco1)N1CCN(c2ccc(F)cc2)CC1 (configuration not stated),inconclusive: 100%
3,CCOc1ccc(NC(=O)c2ccc(NC(=O)COC(=O)Cc3ccc(OC)cc3)cc2)cc1,inconclusive: 96%
4,COc1cccc(CNC(=O)CCC2CCCN(c3cc(C)nc(N4CCCC4)n3)C2)c1 (configuration not stated),inactive: 103%
5,COc1ccccc1NC(=O)c1ccccc1SC,inconclusive: 105%
6,Cc1ccc(S(=O)(=O)Nc2cccc3c2CCCC3)cc1,inactive: 98%
7,CCCN(C(=O)CSc1nnc(-c2ccoc2C)n1N)C1CCS(=O)(=O)C1 (configuration not stated),inconclusive: 96%
8,CC(=O)c1cccc(S(=O)(=O)Nc2cccc(S(=O)(=O)NC3=NCCC3)c2)c1,inconclusive: 98%
9,NC(=O)c1cccnc1Oc1cccc(Cl)c1,inconclusive: 104%
10,O=C(/C=C/c1ccc(Cl)cc1Cl)NCCSCc1ccccc1,inconclusive: 94%
11,CC1Cc2ccccc2N1C(=O)CSc1nnc2c(n1)[nH]c1ccc(F)cc12 (configuration not stated),inconclusive: 93%
12,COc1ccccc1/C=C1\S/C(=N/NC(=O)c2cccc(Br)c2)NC1=O,inconclusive: 89%
13,Cc1ccc(C(=O)NC(=S)/C=C2\N(C)c3ccccc3C2(C)C)cc1,inactive: 98%
14,Cc1cc(NC(=O)CN2CCc3ccccc3C2)nc2c1c(=O)oc1ccccc12,inactive: 95%
15,CC(NC(=O)/C(C#N)=C1\N=C(NC(=O)c2cccs2)c2ccccc21)c1ccccc1 (configuration not stated),inconclusive: 96%
16,COc1ccccc1NC(=O)c1ccc2nc(-c3ccccc3)c(-c3ccccc3)nc2c1,inconclusive: 103%
17,COC(=O)COc1ccc(/C=C2/SC(=O)N(CC(=O)N3CCCC3)C2=O)cc1Br,inconclusive: 96%
18,CSc1nc(=O)n2cc(C)ccc2n1,inactive: 93%
19,CCn1cc(C(=O)NCc2ccco2)c(=O)c2cc(S(=O)(=O)N3CC(C)CC(C)C3)ccc21 (configuration not stated),inconclusive: 93%
